## Results of single-concentration screens

Mtb glucose medium: 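Whole-cell growth test on Mycobacterium tuberculosis, read after 3 days in glucose-containing 7H9 medium; the read-out is not stated. Compounds at 50 µM. Direction is inferred from retests: higher values go with more growth inhibition. About 69,000 compounds were tested under these conditions; 1.1% (about 760) showed 50% or more at least once.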
Mtb cholesterol medium: 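Phenotypic screen: M. tuberculosis growth, cholesterol and DPPC medium, 4 days; the read-out is not stated. Compounds at 50 µM. The record gives no direction; compounds that gave an IC50 in retests scored well above the rest, so higher reads as more growth inhibition. Of about 69,000 compounds tested this way, about 370 (0.54%) reached 50% or more in at least one test.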

Each number is a percent effect as filed. The controls that fix the scale are not given in the record; negative values are as filed. This is an unselected part of the compounds tested. Two or more numbers in one place are separate tests of the same structure; such repeats can differ widely.

| # | compound | Mtb glucose medium | Mtb cholesterol medium |
|---|---|---|---|
| 1 | `N#Cc1cn[nH]c1NCc1cc(Cl)cc(Cl)c1O` | -21.24 | 5.629 |
| 2 | `CN1CSC[C@H]1C(=O)N1CCN(Cc2cccc(Cl)c2)CC1` | 15.66 | -8.16 |
| 3 | `COc1ccc(C[C@H]2CN(C3CCOCC3)CC[C@@H]2OCC2CC2)cc1.O=C(O)C(F)(F)F` | 14.39 | 19.44 |
| 4 | `CCn1c(C)cc(C(=O)N2CCC(Nc3cccnn3)CC2)c1C` | 9.728 | 4.964 |
| 5 | `CCS(=O)(=O)N1CC(=O)N(Cc2ccccc2OC)CC(O)C1` (stereo unspecified) | -35.55 | -28.98 |
| 6 | `Clc1cccc(N2CCC(NCc3cc[nH]n3)C2)c1` (stereo unspecified) | 5.159 | 9.194 |
| 7 | `CN1CCCN(C(=O)NCCNc2ncccc2C#N)CC1` | 13.17 & -8.39 | 24 |
| 8 | `CN1CC(=O)N(c2ccccc2)CC12CCN(CCO)C2.O=C(O)C(F)(F)F.O=C(O)C(F)(F)F` (stereo unspecified) | -5.031 | -23.5 |
| 9 | `CN(C)c1cc(C2CCCN(Cc3cnn(C)c3)C2)ccn1` (stereo unspecified) | 5.683 | 3.455 & 11.12 |
| 10 | `CC1(C)COCCN1C(=O)CCc1nc(-c2ccc(Cl)cc2)no1` | -36.07 & -3.622 | -19.57 |
| 11 | `COc1ccc(Cc2ncc3c(n2)CN(C(=O)C(C)(C)C)C3)cc1` | 21.22 | 5.22 |
| 12 | `CCc1ccccc1OCC(=O)N1CCOCC1c1ncon1` (stereo unspecified) | -73.58 & -9.601 | 4.534 |
| 13 | `CC(=O)N1N=C(c2cccs2)OC1C(=O)NCc1ccc(C)o1` (stereo unspecified) | -24.17 | -7.892 |
| 14 | `COC(=O)N1CCCN(C(=O)NCc2ccc(Cl)s2)CC1` | -26.77 | -28.78 |
| 15 | `CSCC(=O)N1C[C@H](c2ccc(C)o2)[C@@H](N)C1` | 18.69 | -8.647 & -7.695 |
| 16 | `Cc1ccc(OCc2cccc(C(=O)N(C)C(C)CC#N)c2)cn1` (stereo unspecified) | -20.9 | -1.643 |
| 17 | `[H][C@@]12CS(=O)(=O)C[C@]1([H])NCCN2c1ccnc(N(C)CCN2CCCC2)n1` | 13.68 | -13.28 |
| 18 | `CC1CCCN(C(=O)c2nnn(-c3ccc(C(F)(F)F)cc3)n2)C1` (stereo unspecified) | 73.16 & 38.68 | 46.92 |
| 19 | `[H][C@@]12CS(=O)(=O)C[C@]1([H])NCCN2c1ccnc(N(C)CCCN(C)C)n1` | -1 | -14.29 |
| 20 | `CCN(CCNC(=O)Nc1nnc(C)s1)C(=O)OC(C)(C)C` | -3.942 | 1.543 |
| 21 | `Fc1cc(CNc2nncs2)ccc1Cl` | 8.936 & 3.253 | 0.4363 |
| 22 | `Cc1ccc2c(c1)c(CNC(=O)C1CC(=O)N(C3CC3)C1)nn2C` (stereo unspecified) | -26.31 | 1.32 & -0.6246 |
| 23 | `CNc1ccnc(N2CCCC(C(=O)c3ccccn3)C2)n1` (stereo unspecified) | 3.285 | -5.986 |
| 24 | `N[C@H]1CC[C@@H](NC(=O)c2ccc3nc(-c4ccc(F)cc4)cn3c2)CC1` | 13.8 & 8.409 | -2.31 |
| 25 | `Cn1cc(C2CCCN2C(=O)CCCOc2ccccc2F)cn1` (stereo unspecified) | 3.541 & -4.249 | 4.162 |
| 26 | `CN1CCN(Cc2ccncc2)Cc2cccnc21` | 9.753 | -6.34 |
| 27 | `Cc1cccc(CN2CCCC(O)(CNCc3ncccc3C)C2=O)c1` (stereo unspecified) | 21.86 | 5.226 |
| 28 | `O=c1c2sccc2ncn1Cc1cc(C2CC2)[nH]n1` | -8.787 & 4.853 | 6.362 |
| 29 | `[H][C@]12CC[C@@]3(N=C(CC)N(CCOC)C3=O)[C@@]1([H])CN(S(=O)(=O)CC)C2` | -1.183 & -20.37 | 1.09 & -11.74 |
| 30 | `CN(Cc1nnn(CC2CCC2)n1)C(=O)c1ccccc1` | 33.9 | 27.78 |
| 31 | `COc1cccc(N2CCN(C(=O)c3noc4c3CCCCC4)CC2)c1` | 7.082 | 1.666 |
| 32 | `Cc1ccc(F)c(OC2CCCN(c3cnn(C)c3)C2=O)c1` (stereo unspecified) | -1.953 | -9.72 |
| 33 | `COc1ccc2oc(-c3cn(C)nc3C)c(O)c(=O)c2c1` | 17.2 | -1.186 |
| 34 | `CCc1ccc(NC(=O)CC2Cn3ncnc3NC2=O)cc1` (stereo unspecified) | -1.845 | -15.44 |
| 35 | `CN(C)[C@@H]1CN(Cc2ccc(O)cc2)C[C@H]1c1cn(C)c2ccccc12.Cl` | 0.6579 | 7.086 & -0.7935 |
| 36 | `Cc1n[nH]c(C2CN(Cc3ncc(C(C)C)o3)CCO2)n1` (stereo unspecified) | 15.91 | 5.221 |
| 37 | `O=C(NCc1nnc2n1CCC2)N(Cc1ccc(F)cc1)C1CC1` | -8.286 & -17.81 | -4.472 |
| 38 | `Oc1ccc(Cl)cc1CNCc1ccccc1C(F)(F)F` | 19.19 & 32.31 | 31.64 |
| 39 | `C[C@@H]1CN(C(=O)C2(Cn3cccn3)CC2)C[C@@]1(O)C1CCC1` | -35.29 | 3.842 |
| 40 | `O=C(c1ccc(OCC2CC2)nc1)N1CCCC(n2cccn2)C1` (stereo unspecified) | -22.14 | 4.426 |
| 41 | `COc1ncccc1CNC(=O)Nc1cccnc1N1CCCC1` | -22.72 | -23.15 |
| 42 | `CO[C@H]1C(=O)N(C)C2(CCNCC2)[C@@H]1C(=O)Nc1ccccc1` | 6.884 | 2.782 |
| 43 | `CC(C)NS(=O)(=O)c1cc(C(=O)O)cc(-c2ccc3c(c2)OCCO3)c1` | -7.484 | 6.928 & -5.193 |

From ChEMBL document CHEMBL3988442, “University of Dundee, Small-Polar-MMV Screening Library” (2021).